Measurements published in PubChem BioAssay AID624291 (National Center for Advancing Translational Sciences (NCATS), 2012).
Screen size: about 350,000 compounds; about 220 (0.063%) were called active. Inconclusive means that the source gave no clear call. Such entries were picked first, then a sample of the others. Calls follow the shape of the dose curve; as a rule, active = well fitted activation curve with a large enough effect; inconclusive = small, poorly fitted or top-dose-only effect; inactive = no such curve, though single readings can be large or run the other way. A potency beside an inconclusive call is a rough fit, not a confirmed value.

Experiment: qHTS for Activators of Integrin-Mediated Alleviation for Muscular Dystrophy; also: nearly all actives have a fitted effect of over 60% in size;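 as to activation: 100% = response of the positive control SU9516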
Conditions: alpha7betagal myoblasts, beta-gal FDG fluorescence, 48 h; activation: at 38.3 µM (top of the series)
Procedure, shortened: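 Alpha7betagal+/- myoblasts (passage 13) were plated 16-24 hr, then exposed to compounds (1:260 dilution of DMSO stock) for 48 hours at 37C. After MPER lysis, β-galactosidase reporter activity was read as FDG fluorescence (ex 480/em 540) after 30 minutes.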
Potency is read from the fitted curve at half-maximal effect.

Compound	Potency	activation
COc1ccc(C(=O)NNS(=O)(=O)c2ccccc2)cc1	inconclusive: 4.47 µM [activator, single point]	
COc1ccc(Oc2nc3c(c(=O)n(C)c(=O)n3C)n2C)cc1	inconclusive: 25.1 µM [activator, partial curve, poor fit]	
COC(=O)c1sccc1NC(=S)N1CCCCC1	inconclusive: 0.447 µM [activator, full curve, poor fit]	
Cc1ccc(CNc2ncc(-c3ccccc3)n2C)o1	inconclusive: 15.8 µM [activator, single point]	
COc1ccc(CN2C(=O)c3cccnc3C2=O)cc1S(=O)(=O)NCc1ccco1	inconclusive: 28.2 µM [activator, single point]	
CC(C)(C)c1ccc(Cn2c(=O)cnc3ccccc32)cc1		inactive: -2.63%
CCOC(=O)N1CCN(S(=O)(=O)c2ccc(C(=O)Nc3sc4c(c3C(N)=O)CC(C)(C)NC4(C)C)cc2)CC1	inconclusive: 3.55 µM [activator, partial curve, poor fit]	
Cc1ccc(Oc2ccc(S(=O)(=O)NCC(C)(C)N3CCOCC3)cc2)cc1	inconclusive: 3.55 µM [activator, full curve, poor fit]	
CCc1ccc(CNC(=O)CCCn2c(=O)c3cccn3c3cccnc32)cc1	inconclusive: 2.51 µM [activator, full curve]	
Cc1ccc(C)c(N2CCN(C(=O)CCCN3C(=S)NC(C)(C)CC3C)CC2)c1 (configuration not stated)	inconclusive: 2.82 µM [activator, partial curve, poor fit]	
CCn1c(=O)c2cc(C(=O)NCCCOC)sc2c2ccccc21		inactive: 19.8%
CCNC(=S)NS(=O)(=O)c1ccc(CC)cc1		inactive: 13.3%
CCN1C(=O)CSc2ccc(C(=O)NC3CCCCC3)cc21	inconclusive: 28.2 µM [activator, single point]	
CCc1ccc(C(=O)Nc2nc(C)cs2)s1	inconclusive: 1.78 µM [activator, partial curve, poor fit]	
CN1OC[C@@H]2CN[C@H](c3ccc(-c4cc5ccccc5o4)cc3)C[C@@H]21		inactive: -16.7%
Cc1ccc(-n2c(C)cc(C(=O)CSc3nncs3)c2C)cc1		inactive: -18.4%
COc1cc(C(=O)O[C@H]2C/C(C)=C/CC[C@]3(C)O[C@@H]3C(O)C2C(C)C)cc(OC)c1OC (some centres not stated)		inactive: 0.457%
CCCS(=O)(=O)c1nc(S(=O)(=O)c2ccc(C)cc2)c(N2CCN(CCO)CC2)s1	inconclusive: 2.82 µM [activator, partial curve, poor fit]	
CC1(c2ccc3c(c2)OCCO3)NC(=O)N(CC(=O)Nc2ccccc2)C1=O (configuration not stated)	inconclusive: 0.501 µM [activator, full curve, poor fit]	
CC1(C)Cc2c(c(N3CCOCC3)nc3snc(N)c23)CO1		inactive: -70%
C=CCN(CC=C)S(=O)(=O)c1ccc(F)cc1	inconclusive: 5.62 µM [activator, partial curve, poor fit]	
CCn1c(C)cc(/C=C2/SC(=O)N(C(C)C(=O)OC)C2=O)c1C (configuration not stated)		inactive: -9.87%
CC(C)NC(=O)Cn1cc(C(=O)C(=O)N2CCOCC2)c2ccccc21		inactive: 0%

Sorted by count of non-hydrogen atoms (falling): part of the list above.
Compound	Potency	activation
CCOC(=O)N1CCN(S(=O)(=O)c2ccc(C(=O)Nc3sc4c(c3C(N)=O)CC(C)(C)NC4(C)C)cc2)CC1	inconclusive: 3.55 µM [activator, partial curve, poor fit]	
CC(C)NC(=O)Cn1cc(C(=O)C(=O)N2CCOCC2)c2ccccc21		inactive: 0%
COc1ccc(Oc2nc3c(c(=O)n(C)c(=O)n3C)n2C)cc1	inconclusive: 25.1 µM [activator, partial curve, poor fit]	
COC(=O)c1sccc1NC(=S)N1CCCCC1	inconclusive: 0.447 µM [activator, full curve, poor fit]	
C=CCN(CC=C)S(=O)(=O)c1ccc(F)cc1	inconclusive: 5.62 µM [activator, partial curve, poor fit]	

Later entries

Compound	Potency	activation
COc1ccc(N(Cc2cc(=O)[nH]c3ccccc23)C(=O)c2ccco2)cc1	inconclusive: 2.82 µM [activator, single point]	
Cc1noc(C)c1COc1cccc(C(=O)Nc2ccccc2N2CCOCC2)c1	inconclusive: 12.6 µM [activator, single point]	
COc1ccc(N(C(C)C(=O)N/N=C/c2ccc(OC)c(OC)c2)S(C)(=O)=O)cc1 (configuration not stated)	inconclusive: 5.01 µM [activator, single point]	
CCCCNC(=O)Nc1nc(SCC(=O)OCC)n[nH]1	inconclusive: 4.47 µM [activator, single point]	
Cc1cc(NS(=O)(=O)c2ccc(NC(=O)/C=C/c3ccc(C)o3)cc2)nc(C)n1	inconclusive: 5.01 µM [activator, single point]	
COc1cccc(C(CC(=O)O)NS(=O)(=O)c2ccc3c(c2)N(C(C)=O)CC(C)O3)c1 (configuration not stated)	inconclusive: 5.01 µM [activator, single point]	
O=[N+]([O-])c1ccc(C2=CSC3=NCCN23)cc1	inconclusive: 22.4 µM [activator, single point]	
CC1(C)Cc2cccc(OCC(=O)OCC(=O)NCc3ccccc3)c2O1	inconclusive: 5.01 µM [activator, single point]	
NC(=O)C1CCN(C(=O)c2ccc3c(=O)n(Cc4cccc(Br)c4)c(=S)[nH]c3c2)CC1	inconclusive: 2.24 µM [activator, full curve, poor fit]	
O=C(Nc1ccc(Cl)c(C(F)(F)F)c1)c1ccco1	inconclusive: 5.01 µM [activator, single point]	
COc1ccc(CC(=O)NCc2ccccn2)cc1OC		inactive: -18.4%
Cc1cc(C)n(-c2ccc(C(=O)Nc3ccc(S(=O)(=O)NCc4ccco4)cc3)cc2)n1		inactive: -30.9%
O=C(/C=C/c1ccccc1)/C=C/c1ccccc1		inactive: -60.3%
O=C(NC1CC2CCCC(C1)N2C(=O)Nc1ccccc1)C1CC1 (configuration not stated)	inconclusive: 5.62 µM [activator, partial curve, poor fit]	
CCCCC(CC)C(=O)Nc1cc(=O)[nH]c2nc3ccccc3n12 (configuration not stated)	inconclusive: 28.2 µM [activator, single point]	
Cn1c(O)c(N=NC(=O)CNC(=O)c2ccccc2)c2cc(Br)ccc21	inconclusive: 28.2 µM [activator, single point]	
Cc1noc(C)c1C(=O)OCC(=O)Nc1ccc(N2CCOCC2)cc1	inconclusive: 5.01 µM [activator, single point]	
Cc1ccc(-n2c(Cn3c(C)nc4ccccc43)n[nH]c2=S)cc1	inconclusive: 22.4 µM [activator, partial curve, poor fit]	
C=CCN(C(=O)CNC(=O)c1ccco1)C(C(=O)NC1CCCCC1)c1cccnc1 (configuration not stated)	inconclusive: 28.2 µM [activator, single point]	
O=C(CNc1ccccc1)NNC1=NCCC1	inconclusive: 3.16 µM [activator, single point]	
O=C(COC(=O)c1cncc(Br)c1)NCc1ccccc1Cl	inconclusive: 28.2 µM [activator, single point]	
Cc1ccc(N2CC(C(=O)OCC(=O)c3ccc(C)c([N+](=O)[O-])c3)CC2=O)cc1 (configuration not stated)	inconclusive: 5.01 µM [activator, single point]	
NC1=NC(=O)/C(=C\c2cccnc2)S1	inconclusive: 1.58 µM [activator, partial curve, poor fit]	

Compound	Potency	activation
Cc1ccc(NC(=S)Nc2ccc(F)cc2)c(C)c1		inactive: -20.4%
Cc1ccc(S(=O)(=O)N2C(=O)CCC2C(=O)O/N=C(\N)c2ccc([N+](=O)[O-])cc2)cc1 (configuration not stated)	inconclusive: 5.01 µM [activator, single point]	
COc1cccc(NC(=O)NNC(=O)CCc2ccc(O)c(O)c2)c1		inactive: 23.2%
Cc1occc1C(=O)N/N=C/c1ccc(-c2ccccc2)cc1	inconclusive: 3.98 µM [activator, single point]	
CCN(CC)S(=O)(=O)c1ccc(C(=O)NCCN2C(=O)S/C(=C\c3cccnc3)C2=O)cc1	inconclusive: 0.355 µM [activator, partial curve, poor fit]	
O=C(c1ccoc1)N1CCC2(CC1)Oc1ccc(F)cc1C(=O)C21CC(c2ccc(Cl)cc2)=NO1 (configuration not stated)		inactive: 13.4%
COc1cccc(-c2cc3nc(-c4ccccc4)cc(N4CCC5(CC4)OCCO5)n3n2)c1		inactive: 6.09%
O=C(CNC(=O)COc1ccccc1)NCCc1ccccn1	inconclusive: 28.2 µM [activator, single point]	
Cc1cc(C(=O)N/N=C/c2cc([N+](=O)[O-])cc(C)c2O)n[nH]1	inconclusive: 3.55 µM [activator, partial curve, poor fit]	
O=C(/C=C/Nc1ccc(Br)cc1F)c1ccco1	inconclusive: 1.12 µM [activator, partial curve, poor fit]	
COC(C(=O)N/N=C(\C)c1ccc(C)cc1)c1ccccc1 (configuration not stated)	inconclusive: 10 µM [activator, partial curve, poor fit]	
O=C(O)c1cccc2c1C(=O)N(c1ccccc1)C2		inactive: 7%
O=C(O)c1cc(NS(=O)(=O)c2cccc3ccccc23)ccc1O		inactive: 1.53%
CCN1CCN(C2=C(NS(=O)(=O)c3ccc(Br)cc3)C(=O)c3ccccc3C2=O)CC1		inactive: 27.5%
COc1cccc(OCc2cc(C(=O)N3CCN(c4ccccc4O)CC3)no2)c1	inconclusive: 2.51 µM [activator, single point]	
O=C(/C=C/c1cccs1)c1ccc(NC(=O)c2cccc(Br)c2)cc1		inactive: -15%
CC(Cc1ccccc1)N1C(=O)c2cccc([N+](=O)[O-])c2C1=O (configuration not stated)	inconclusive: 5.62 µM [activator, partial curve, poor fit]	
C=CCn1c(NCc2ccccc2)nc2ccccc21	inconclusive: 2.82 µM [activator, full curve, poor fit]	
CSc1cccc(NC(=O)CCC(=O)O)c1	inconclusive: 31.6 µM [activator, single point]	
Cc1ccc(CN2CCN(Cc3cnc(N(C)C)s3)CC2CCO)o1 (configuration not stated)	inconclusive: 2.82 µM [activator, single point]	
CN(CC1CCOCC1)C(=O)c1ccc2nc(Cc3cccc(Cl)c3)oc2c1	inconclusive: 28.2 µM [activator, single point]	
